PubChem BioAssay AID1259254 | NCATS – 2017
This is an unselected part of about 59,000 reagents. About 1,550 of them (2.6%) were called active. 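G2 share is only a proxy for re-replication; each gene was hit by three separate siRNAs, and active genes were retested.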 Entries without a mark were called inactive. The numbers tell different reagents against one gene apart. Not all columns of the deposit are shown. The record does not give: the amount of reagent.

Test: 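Gene knock-downs that lead to re-replication, shown by excess G2 DNA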 (primary screen)
Cell system: human HCT116 colorectal cancer cells
Reagent: single siRNA against human genes
Timing: 3 days
Measurement: 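Imaged Hoechst DNA stain sorts each cell into a cycle phase by DNA amount; per plate, G2 fraction set to 0% for non-targeting and 100% for GMNN siRNA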
Reading the numbers: G2 robust z-score: higher = more G2 cells, more excess DNA replication
Call rule: 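Active siRNAs have a G2 robust z of 5 or more median absolute deviations over the median, which in these data means about 38% or higher of GMNN control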

Gene | reagent no. | G2 robust z-score
PRPF31 (GeneID 26121) | 1 | -1.23
PRPF31 (GeneID 26121) | 2 | 3.83
PRPF31 (GeneID 26121) | 3 | 1.98
TEKTL1 (GeneID 126402) | 1 | -0.833
TEKTL1 (GeneID 126402) | 2 | 6.32 (active)
TEKTL1 (GeneID 126402) | 3 | -0.172
HINT1P1 (GeneID 730647) | 1 | -0.729
HINT1P1 (GeneID 730647) | 2 | -0.591
HINT1P1 (GeneID 730647) | 3 | 0.218
DDX12P (GeneID 440081) | 1 | 1.2
DDX12P (GeneID 440081) | 2 | 0.635
DDX12P (GeneID 440081) | 3 | 3.33
ELMOD2 (GeneID 255520) | 1 | -1.31
ELMOD2 (GeneID 255520) | 2 | -0.721
ELMOD2 (GeneID 255520) | 3 | 2.87
LOC646670 (retired record) (GeneID 646670) | 1 | 0.7
LOC646670 (retired record) (GeneID 646670) | 2 | 1.27
LOC646670 (retired record) (GeneID 646670) | 3 | -0.397
ITCH (GeneID 83737) | 1 | -0.886
ITCH (GeneID 83737) | 2 | -0.86
ITCH (GeneID 83737) | 3 | 0.194
PANK4 (GeneID 55229) | 1 | -0.707
PANK4 (GeneID 55229) | 2 | -0.937
PANK4 (GeneID 55229) | 3 | -0.469

Records listed so far whose target name begins with D or d:
Gene | reagent no. | G2 robust z-score
DDX12P (GeneID 440081) | 1 | 1.2
DDX12P (GeneID 440081) | 2 | 0.635
DDX12P (GeneID 440081) | 3 | 3.33

The list goes on.
Gene | reagent no. | G2 robust z-score
DYNLL1 (GeneID 8655) | 1 | -0.312
DYNLL1 (GeneID 8655) | 2 | -1.09
DYNLL1 (GeneID 8655) | 3 | -0.0679
CTSL (GeneID 1514) | 1 | 0.68
CTSL (GeneID 1514) | 2 | -0.139
CTSL (GeneID 1514) | 3 | 0.494
ARHGAP9 (GeneID 64333) | 1 | 0.796
ARHGAP9 (GeneID 64333) | 2 | -0.731
ARHGAP9 (GeneID 64333) | 3 | 0.267
SPARC (GeneID 6678) | 1 | 0.497
SPARC (GeneID 6678) | 2 | 1.44
SPARC (GeneID 6678) | 3 | 0.275
AKAP17A (GeneID 8227) | 1 | -0.909
AKAP17A (GeneID 8227) | 2 | 0.574
AKAP17A (GeneID 8227) | 3 | 2.05
TLK2 (GeneID 11011) | 1 | 0.3
TLK2 (GeneID 11011) | 2 | -0.447
TLK2 (GeneID 11011) | 3 | 3.43
NDUFS5 (GeneID 4725) | 1 | 0.0364
NDUFS5 (GeneID 4725) | 2 | -0.863
NDUFS5 (GeneID 4725) | 3 | -1.56
TFPI2 (GeneID 7980) | 1 | 1.96
TFPI2 (GeneID 7980) | 2 | -0.104
TFPI2 (GeneID 7980) | 3 | 2.68
